Source: PMC12347450
These are yes or no findings as the source states them, for the method shown. Binding seen in cells or lysates may run through a third protein. Some binding calls cover weakened binding; strength is not graded here.

Chains of the proteins cited; added tags and fusions are not shown.
UniProt Q99J83: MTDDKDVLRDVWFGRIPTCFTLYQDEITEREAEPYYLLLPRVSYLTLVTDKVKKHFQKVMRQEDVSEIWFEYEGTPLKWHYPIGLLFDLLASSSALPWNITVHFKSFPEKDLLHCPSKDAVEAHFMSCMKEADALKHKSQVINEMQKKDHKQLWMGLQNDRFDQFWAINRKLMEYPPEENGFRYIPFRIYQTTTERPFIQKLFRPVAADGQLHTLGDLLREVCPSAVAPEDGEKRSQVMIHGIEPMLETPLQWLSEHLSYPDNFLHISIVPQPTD

Target: T1, SPRED3 (Sprouty-related protein with EVH1 domain 3) (mouse (endogenous in brain cortex)) (UniProt Q6P6N5)
T1 sequence: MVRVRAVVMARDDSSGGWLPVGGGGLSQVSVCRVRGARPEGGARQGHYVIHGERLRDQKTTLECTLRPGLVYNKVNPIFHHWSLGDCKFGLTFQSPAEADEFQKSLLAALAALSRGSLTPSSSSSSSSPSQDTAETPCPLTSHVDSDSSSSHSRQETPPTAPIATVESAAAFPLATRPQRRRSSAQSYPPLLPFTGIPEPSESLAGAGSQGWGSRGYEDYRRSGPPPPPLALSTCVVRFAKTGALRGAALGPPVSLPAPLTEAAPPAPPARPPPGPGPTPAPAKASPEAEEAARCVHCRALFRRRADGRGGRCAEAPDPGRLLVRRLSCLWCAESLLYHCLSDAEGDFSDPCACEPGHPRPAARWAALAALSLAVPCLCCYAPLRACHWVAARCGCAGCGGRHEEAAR
Assay: co-IP; brain cortex lysate (150 mM NaCl, 1% IGEPAL, 0.5% sodium deoxycholate, 50 mM Tris, pH 8), precleared, polyclonal rabbit anti-SPRED3 and Protein A/G beads, 4 °C; immunoblot for p62 or ATG5; irrelevant antibody as control

- binding: binds
Substance: autophagy-related gene 5 (ATG5) (from UniProt Q99J83 1-275)
